The text below walks through data of US20220168309A1 (F-STAR THERAPEUTICS, INC., priority 2019, published 2022).

Chains of the proteins cited; added tags and fusions are not shown.
UniProt Q86WV6, whole entry: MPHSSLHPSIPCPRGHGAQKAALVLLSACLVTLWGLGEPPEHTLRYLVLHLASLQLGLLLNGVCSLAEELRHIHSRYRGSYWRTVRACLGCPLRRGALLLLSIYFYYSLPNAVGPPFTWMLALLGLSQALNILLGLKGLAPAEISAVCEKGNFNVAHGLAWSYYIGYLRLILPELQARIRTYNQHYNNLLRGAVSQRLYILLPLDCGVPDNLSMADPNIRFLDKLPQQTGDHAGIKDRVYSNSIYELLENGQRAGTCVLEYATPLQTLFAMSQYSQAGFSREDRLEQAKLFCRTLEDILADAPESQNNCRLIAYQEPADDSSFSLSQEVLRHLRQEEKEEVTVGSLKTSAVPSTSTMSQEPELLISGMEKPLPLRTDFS

Molecules are shown by their SMILES. Structures were worked out from names or drawings and are uncertain.

For the test, the target named is STING (Homo sapiens, UniProt Q86WV6). Kind of test: STING antagonist activity, cell-based ISG54 promoter-reporter luciferase measurement of IRF activity (THP-1 dual / RAW-ISG cells). To be noted: Antagonist Activity of Exemplary Compounds; cell line and agonist not given. Here is the method:
THP-1 dual cells (InvivoGen) were cultured under 5% CO2 at 37° C. in RPMI containing 10% fetal bovine serum (FBS), 100 IU mL-1 penicillin and 100 μg mL-1 streptomycin. RAW-ISG cells (InvivoGen) were cultured under 5% CO2 at 37° C. in DMEM containing 10% fetal bovine serum (FBS), 100 IU mL-1 penicillin and 100 μg mL-1 streptomycin. THP-1 dual cells were seeded into the 96 well assay plate on the day of assay whereas RAW cells were seeded into the 96 well assay plate 18 hours before the assay.
50,000 cells seeded in a 96-well flat bottom white assay plate were treated with different concentrations (10 uM to 0.01 uM) of compounds for 1 h followed by STING induction with either 30 nM SB 11285 or 10 ug/mL 2′-3′ cGAMP. […] The % inhibition was calculated as 100−{[(luminescence of COI treated well/luminescence of non-COI treated well)/100]×100}. IC50 was calculated by plotting in Xlfit.
50,000 cells seeded in a 96-well flat bottom white assay plate were treated with different concentrations (10 uM to 0.01 uM) of compounds for 1 h followed by STING induction with either 1 μM SB 11285 or 10 ug/mL 2′-3′ cGAMP. […] The % inhibition was calculated as 100−{[(luminescence of COI treated well/luminescence of non-COI treated well)/100]×100}. IC50 was calculated by plotting in Xlfit. […]

`COC(=O)CCCCCCCCCCCCCCCn1c(C)nc2nc(Cl)nc(SC)c21` registered an IC50 of 10 to 20 µM.

As for `CCCCCCCCCCCCCCCCn1c(C)nc2nc(Cl)nc(N)c21`, the IC50 was 0.001 to 1 µM.
